# From PubChem BioAssay AID248 (DTP/NCI, 2004)
# The list shows only some results of the screen, not a fair sample: it gathers tests that were run many times, whatever their T/C, doses with no T/C, and many T/C values between a quarter and a half above the control. Other doses and runs of a compound stand elsewhere. T/C: endpoint of the treated group in % of that of the vehicle group. Some doses have a count of surviving animals in place of a T/C: the source holds a T/C of zero for them, seemingly a mark for toxic or unscored doses. Some doses without a T/C left all or most animals alive at the check, yet need not have been tolerated: the source hardly ever lists a survival T/C far under the control, and the zero likely stands for such cases as well. Survivors were counted at the toxicity check, usually on the fifth day, unless a day is given; later deaths do not show. Schedule codes are those of the source, read here as Q, the interval in days (D) or hours (H), X, the number of doses. Some schedule codes hold Z or #, which are not explained here. For survival time, this PubChem deposit counts one and a half times the control or more as active, and values a quarter to a half above the control carry no call in these data; other NCI protocols may use other cut-offs. Signs of the kind (2×) stand for listed records that agree. Some entries hold several experiments; their values stand side by side, smallest first. Some T/C values are followed by the survivors on the day toxicity was checked, most often the fifth; where none is given, no animal had died by that day.
# System: L1210 leukemia ip in BDF1 mice, survival T/C
# Assay: NCI In Vivo Anticancer Drug Screen. Data for tumor model L1210 Leukemia (intraperitoneal) in B6D2F1 (BDF1) mice
# Conditions: T/C endpoint: mean survival time, higher T/C = longer survival
# [1] = dose: 40.0 mg/kg/injection, schedule: Q01DX001 (ip), vehicle: saline
# [2] = dose: 80.0 mg/kg/injection, schedule: Q01DX001 (ip), vehicle: saline
# [3] = dose: 200.0 mg/kg/injection, schedule: Q04DX003 (ip), vehicle: saline
# [4] = dose: 400.0 mg/kg/injection, schedule: Q04DX003 (ip), vehicle: saline
# [5] = dose: 100.0 mg/kg/injection, schedule: Q01DX009 (ip), vehicle: saline with Tween-80
# [6] = dose: 400.0 mg/kg/injection, schedule: Q01DX009 (ip), vehicle: saline with Tween-80
# [7] = dose: 100.0 mg/kg/injection, schedule: Q01DX001 (ip), vehicle: saline
# [8] = dose: 50.0 mg/kg/injection, schedule: Q04DX003 (ip), vehicle: saline with Tween-80
# [9] = dose: 100.0 mg/kg/injection, schedule: Q04DX003 (ip), vehicle: saline with Tween-80
# [10] = dose: 200.0 mg/kg/injection, schedule: Q04DX002 (ip), vehicle: saline with Tween-80
compound,measurement,setting,value
O=C1C=C(O)C(=O)C=C1O,survivor count,"dose: 20.0 mg/kg/injection, schedule: Q01DX009 (ip), vehicle: saline with Tween-80",4 of 6
same,survivor count,"dose: 25.0 mg/kg/injection, schedule: Q04DX002 (ip), vehicle: saline",1 of 3
same,survivor count,"dose: 25.0 mg/kg/injection, schedule: Q04DX003 (ip), vehicle: saline",3 of 6
same,survivor count,[1],3 of 6
same,survivor count,"dose: 50.0 mg/kg/injection, schedule: Q04DX002 (ip), vehicle: saline",1 of 3
same,survivor count,"dose: 50.0 mg/kg/injection, schedule: Q04DX003 (ip), vehicle: saline",2 of 6
same,survivor count,[2],0 of 6
same,survivor count,"dose: 100.0 mg/kg/injection, schedule: Q04DX002 (ip), vehicle: saline",0 of 3
same,survivor count,"dose: 100.0 mg/kg/injection, schedule: Q04DX003 (ip), vehicle: saline",0 of 6
same,survivor count,"dose: 200.0 mg/kg/injection, schedule: Q04DX002 (ip), vehicle: saline",0 of 3
same,survivor count,[3],0 of 6
same,survivor count,"dose: 400.0 mg/kg/injection, schedule: Q04DX002 (ip), vehicle: saline",0 of 3
same,survivor count,[4],0 of 6
Cc1c2oc3c(C)ccc(C(=O)NC4C(=O)NC(C(C)C)C(=O)N5CCCCC5C(=O)N(C)CC(=O)N(C)C(C(C)C)C(=O)OC4C)c3nc-2c(C(=O)NC2C(=O)NC(C(C)C)C(=O)N3CCCCC3C(=O)N(C)CC(=O)N(C)C(C(C)C)C(=O)OC2C)c(N)c1=O (stereo not given),survivor count,"dose: 2.0 mg/kg/injection, schedule: Q01DX009 (ip), vehicle: water",6 of 6
same,T/C,"dose: 4.0 mg/kg/injection, schedule: Q01DX001 (ip), vehicle: saline",127 [4 of 6 alive] and 137 % of control
same,survivor count,"dose: 4.0 mg/kg/injection, schedule: Q01DX009 (ip), vehicle: water",2 of 6
same,survivor count,"dose: 8.0 mg/kg/injection, schedule: Q01DX001 (ip), vehicle: saline",1 of 6
same,survivor count,"dose: 16.0 mg/kg/injection, schedule: Q01DX001 (ip), vehicle: saline",1 of 6
O=C(N=c1scc(-c2ccc(Br)cc2)n1-c1cccc2ccccc12)c1ccccc1F,survivor count,[5],6 of 6
same,survivor count,"dose: 200.0 mg/kg/injection, schedule: Q01DX009 (ip), vehicle: saline with Tween-80",6 of 6
same,survivor count,[6],6 of 6
CCN(CC)CCCC(C)Nc1cc(N)nc2nc(-c3ccc(Br)cc3)cnc12 (stereo not given),survivor count,"dose: 300.0 mg/kg/injection, schedule: Q01DX001 (ip), vehicle: saline",0 of 6
COc1cc([C@@H]2c3cc4c(cc3[C@H](OC(C)=O)[C@H]3COC(=O)[C@@H]23)OCO4)cc(OC)c1OC,T/C,"dose: 50.0 mg/kg/injection, schedule: Q01DX009 (ip), vehicle: saline with Tween-80",138 % of control
same,survivor count,"dose: 75.0 mg/kg/injection, schedule: Q01DX009 (ip), vehicle: saline with Tween-80",3 of 6
same,survivor count,"dose: 400.0 mg/kg/injection, schedule: Q04DX003 (ip), vehicle: Klucel (hydroxypropylcellulose) (HPC)",4 of 6
same,survivor count,"dose: 525.0 mg/kg/injection, schedule: Q07DX Z (ip), vehicle: methylcellulose (MC)",0 of 6
Cc1cc(Cl)ccc1NC(=O)Oc1cc(C)c(Cl)c(C)c1Cl,T/C,[5],"93, 103, 105, 108 % of control"
same,survivor count,[6],1 of 3
CCOP(=O)(OCC)C([O][Sb]([O]CC(C)Cl)[O]CC(C)Cl)c1ccc(OC)cc1 (stereo not given),survivor count,"dose: 200.0 mg/kg/injection, schedule: Q04DX003 (ip), vehicle: alcohol",0 of 6
same,survivor count,"dose: 400.0 mg/kg/injection, schedule: Q04DX003 (ip), vehicle: alcohol",0 of 6
CC(C)(C)C(/C=N/N=C(N)N)=N\N=C(N)N,survivor count,"dose: 240.0 mg/kg/injection, schedule: Q01DX Z (ip), vehicle: methylcellulose (MC)",0 of 6
same,survivor count,"dose: 360.0 mg/kg/injection, schedule: Q01DX Z (ip), vehicle: methylcellulose (MC)",0 of 6
same,survivor count,"dose: 480.0 mg/kg/injection, schedule: Q01DX Z (ip), vehicle: methylcellulose (MC)",0 of 6
same,survivor count,"dose: 840.0 mg/kg/injection, schedule: Q01DX Z (oral), vehicle: methylcellulose (MC)",3 of 6
CS(=O)(=O)OCCC(=O)N1CCN(C(=O)CCOS(C)(=O)=O)CC1,T/C,"dose: 12.5 mg/kg/injection, schedule: Q01DX Z (ip), vehicle: methylcellulose (MC)",137 % of control
same,T/C,"dose: 15.6 mg/kg/injection, schedule: Q01DX Z (ip), vehicle: methylcellulose (MC)",129 % of control
same,survivor count,"dose: 16.0 mg/kg/injection, schedule: Q01DX002 (ip), vehicle: saline",6 of 6
same,T/C,"dose: 25.0 mg/kg/injection, schedule: Q01DX Z (ip), vehicle: methylcellulose (MC)",138 % of control
same,T/C,"dose: 50.0 mg/kg/injection, schedule: Q01DX001 (ip), vehicle: carboxymethylcellulose (CMC)",134 [5 of 6 alive] and 137 % of control
same,T/C,"dose: 50.0 mg/kg/injection, schedule: Q01DX Z (ip), vehicle: methylcellulose (MC)","158, 162, 164, 226 % of control"
same,T/C,"dose: 62.0 mg/kg/injection, schedule: Q01DX002 (ip), vehicle: saline",125 % of control (2×)
same,T/C,"dose: 76.0 mg/kg/injection, schedule: Q01DX Z (ip), vehicle: methylcellulose (MC)",142 % of control
same,T/C,[7],136 % of control
same,T/C,"dose: 100.0 mg/kg/injection, schedule: Q01DX Z (ip), vehicle: methylcellulose (MC)",135 % of control
same,T/C,"dose: 113.0 mg/kg/injection, schedule: Q01DX Z (ip), vehicle: methylcellulose (MC)",141 % of control (2×)
same,T/C,"dose: 125.0 mg/kg/injection, schedule: Q01DX002 (ip), vehicle: saline",130 and 139 % of control
same,T/C,"dose: 125.0 mg/kg/injection, schedule: Q01DX Z (ip), vehicle: methylcellulose (MC)",143 % of control
same,T/C,"dose: 170.0 mg/kg/injection, schedule: Q01DX Z (ip), vehicle: methylcellulose (MC)",131 % of control
same,survivor count,"dose: 200.0 mg/kg/injection, schedule: Q01DX Z (ip), vehicle: methylcellulose (MC)",6 of 7
same,T/C,[3],134 % of control
same,survivor count,"dose: 250.0 mg/kg/injection, schedule: Q01DX Z (ip), vehicle: methylcellulose (MC)",6 of 6
same,survivor count,"dose: 300.0 mg/kg/injection, schedule: Q01DX Z (ip), vehicle: methylcellulose (MC)",6 of 7
same,survivor count,"dose: 400.0 mg/kg/injection, schedule: Q01DX Z (ip), vehicle: methylcellulose (MC)",6 of 7
same,survivor count,[4],3 of 4
same,survivor count,"dose: 500.0 mg/kg/injection, schedule: Q01DX Z (ip), vehicle: methylcellulose (MC)",4 of 7
CC(C)c1nc2c(n1Cc1ccccc1)C=C(C(=O)c1ccccc1)S(=O)(=O)C(C(=O)c1ccccc1)=C2,T/C,[8],86 and 95 % of control (2×)
same,survivor count,[8],3 of 3
same,survivor count,"dose: 100.0 mg/kg/injection, schedule: Q04DX002 (ip), vehicle: Klucel (hydroxypropylcellulose) (HPC)",3 of 3
same,T/C,"dose: 100.0 mg/kg/injection, schedule: Q04DX002 (ip), vehicle: saline with Tween-80","93, 95 (2×), 104 % of control"
same,T/C,[9],"93, 95, 98 % of control"
same,survivor count,[9],3 of 3
same,T/C,[10],"88, 89, 100 % of control"
same,survivor count,[10],3 of 3
CC(O)CN(CCN(CC(C)O)CC(C)O)CCN(CC(C)O)CC(C)O.O=S(=O)([O-])[O-].[Cu+2] (stereo not given),survivor count,"dose: 20.0 mg/kg/injection, schedule: Q01DX001 (ip), vehicle: saline",0 of 4
same,survivor count,[1],0 of 4
same,survivor count,"dose: 50.0 mg/kg/injection, schedule: Q01DX001 (ip), vehicle: saline",0 of 4
same,survivor count,[2],0 of 4
same,survivor count,[7],0 of 4
same,survivor count,"dose: 200.0 mg/kg/injection, schedule: Q01DX001 (ip), vehicle: saline",0 of 4
same,survivor count,"dose: 400.0 mg/kg/injection, schedule: Q01DX001 (ip), vehicle: saline",0 of 4
